These are yes or no findings as the source states them, for the method shown. In cells and extracts the contact can be indirect. Some entries that bind do so weakly or less than the wild type. Tags and fused reporters may be left off the sequences shown.
Biological target: T1, Flag-CFH1 (CLOCK-REGULATED F-BOX WITH A LONG HYPOCOTYL 1, full length) (Arabidopsis) (UniProt Q8RY82)
T1 sequence: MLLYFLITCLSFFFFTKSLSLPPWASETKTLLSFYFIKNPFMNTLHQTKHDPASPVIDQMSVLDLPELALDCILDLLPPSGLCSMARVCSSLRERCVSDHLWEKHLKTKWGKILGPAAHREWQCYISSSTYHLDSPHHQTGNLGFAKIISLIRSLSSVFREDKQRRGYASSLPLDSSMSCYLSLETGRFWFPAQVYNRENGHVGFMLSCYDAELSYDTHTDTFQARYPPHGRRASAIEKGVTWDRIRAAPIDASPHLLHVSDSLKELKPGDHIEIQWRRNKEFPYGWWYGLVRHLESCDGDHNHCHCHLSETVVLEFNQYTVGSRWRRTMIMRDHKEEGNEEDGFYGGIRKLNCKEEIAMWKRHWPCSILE
Test: co-IP

The chains behind the UniProt entries cited, without tags or fusion partners.
UniProt Q94AH6: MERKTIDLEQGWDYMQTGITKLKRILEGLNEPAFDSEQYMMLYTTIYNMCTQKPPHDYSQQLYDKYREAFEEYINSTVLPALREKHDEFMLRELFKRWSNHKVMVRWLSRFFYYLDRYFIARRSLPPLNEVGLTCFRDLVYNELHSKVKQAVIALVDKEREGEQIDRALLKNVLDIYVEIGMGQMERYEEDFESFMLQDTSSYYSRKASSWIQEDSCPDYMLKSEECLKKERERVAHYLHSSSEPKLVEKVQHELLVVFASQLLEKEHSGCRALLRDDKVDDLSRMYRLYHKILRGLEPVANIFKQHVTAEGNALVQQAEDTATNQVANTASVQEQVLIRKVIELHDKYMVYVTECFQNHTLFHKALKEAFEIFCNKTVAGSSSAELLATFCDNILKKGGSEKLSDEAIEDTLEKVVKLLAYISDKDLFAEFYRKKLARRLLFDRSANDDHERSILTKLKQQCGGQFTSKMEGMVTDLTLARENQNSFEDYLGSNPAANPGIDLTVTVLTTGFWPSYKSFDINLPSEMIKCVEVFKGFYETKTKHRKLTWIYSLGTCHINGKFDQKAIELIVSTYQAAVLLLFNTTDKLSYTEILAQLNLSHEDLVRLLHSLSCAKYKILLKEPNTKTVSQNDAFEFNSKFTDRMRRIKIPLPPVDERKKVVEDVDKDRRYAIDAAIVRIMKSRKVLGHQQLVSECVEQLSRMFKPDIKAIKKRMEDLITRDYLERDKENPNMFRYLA

Cullin-1 (from UniProt Q94AH6 1-738)
binding: binds

From article doi:10.1101/2023.09.18.558326
